In the supplement of paper PMC10849652:
Some of the results follow.

Chains of the proteins cited; added tags and fusions are not shown. Lines headed by an entry give the natural chain unless they say otherwise; changes in a name come on top.
UniProt P27144: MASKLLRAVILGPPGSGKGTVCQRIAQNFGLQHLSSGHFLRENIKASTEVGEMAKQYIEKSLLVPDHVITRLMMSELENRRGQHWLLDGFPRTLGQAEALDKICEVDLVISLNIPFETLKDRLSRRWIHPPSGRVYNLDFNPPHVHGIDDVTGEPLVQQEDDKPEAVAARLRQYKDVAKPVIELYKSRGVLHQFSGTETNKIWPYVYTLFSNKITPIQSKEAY
UniProt Q4G176: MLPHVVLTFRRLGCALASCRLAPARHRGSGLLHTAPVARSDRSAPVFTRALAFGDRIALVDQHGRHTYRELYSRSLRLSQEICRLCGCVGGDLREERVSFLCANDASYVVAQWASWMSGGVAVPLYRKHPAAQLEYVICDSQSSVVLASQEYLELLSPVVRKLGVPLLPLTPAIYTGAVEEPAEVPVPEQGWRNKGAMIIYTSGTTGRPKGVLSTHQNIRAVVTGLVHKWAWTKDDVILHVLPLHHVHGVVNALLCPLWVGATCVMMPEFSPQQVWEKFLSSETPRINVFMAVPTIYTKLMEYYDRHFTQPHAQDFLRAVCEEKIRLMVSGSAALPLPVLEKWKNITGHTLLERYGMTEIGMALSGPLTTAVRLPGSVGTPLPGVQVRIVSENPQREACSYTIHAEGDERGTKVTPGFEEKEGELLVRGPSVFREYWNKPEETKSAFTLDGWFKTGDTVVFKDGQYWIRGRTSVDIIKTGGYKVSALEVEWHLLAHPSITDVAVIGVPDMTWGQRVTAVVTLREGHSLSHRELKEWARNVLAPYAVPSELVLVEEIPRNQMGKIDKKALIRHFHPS
UniProt P51825: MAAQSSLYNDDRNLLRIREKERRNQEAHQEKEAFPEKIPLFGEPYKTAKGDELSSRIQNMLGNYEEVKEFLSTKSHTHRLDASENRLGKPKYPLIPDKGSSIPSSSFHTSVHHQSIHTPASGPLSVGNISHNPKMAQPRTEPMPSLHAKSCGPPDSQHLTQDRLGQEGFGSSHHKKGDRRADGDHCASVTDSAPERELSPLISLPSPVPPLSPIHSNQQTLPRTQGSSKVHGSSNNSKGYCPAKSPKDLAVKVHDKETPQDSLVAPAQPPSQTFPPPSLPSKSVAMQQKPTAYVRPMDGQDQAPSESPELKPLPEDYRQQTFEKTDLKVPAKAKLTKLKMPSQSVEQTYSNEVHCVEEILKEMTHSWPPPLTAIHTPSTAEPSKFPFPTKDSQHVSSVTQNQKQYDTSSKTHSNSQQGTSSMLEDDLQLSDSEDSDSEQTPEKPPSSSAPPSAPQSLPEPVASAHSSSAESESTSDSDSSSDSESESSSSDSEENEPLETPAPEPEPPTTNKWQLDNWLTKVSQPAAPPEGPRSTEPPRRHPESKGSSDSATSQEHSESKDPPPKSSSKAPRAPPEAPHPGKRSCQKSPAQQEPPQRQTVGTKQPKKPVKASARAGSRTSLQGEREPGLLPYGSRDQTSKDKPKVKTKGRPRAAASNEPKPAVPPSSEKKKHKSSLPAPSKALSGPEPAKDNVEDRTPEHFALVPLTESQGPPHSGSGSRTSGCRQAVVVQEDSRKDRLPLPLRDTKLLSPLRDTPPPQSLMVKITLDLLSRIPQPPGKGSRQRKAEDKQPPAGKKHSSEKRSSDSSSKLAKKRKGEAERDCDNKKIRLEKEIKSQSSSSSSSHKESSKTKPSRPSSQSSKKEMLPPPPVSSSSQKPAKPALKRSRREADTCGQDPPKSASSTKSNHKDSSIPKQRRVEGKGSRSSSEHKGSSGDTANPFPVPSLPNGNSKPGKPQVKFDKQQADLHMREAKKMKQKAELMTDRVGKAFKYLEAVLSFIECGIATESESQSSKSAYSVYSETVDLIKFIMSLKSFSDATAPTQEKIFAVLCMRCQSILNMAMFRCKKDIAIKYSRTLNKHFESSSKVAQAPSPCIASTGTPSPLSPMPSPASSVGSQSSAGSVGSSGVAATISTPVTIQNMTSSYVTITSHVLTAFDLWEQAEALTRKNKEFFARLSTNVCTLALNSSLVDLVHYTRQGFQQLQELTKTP
UniProt O95831, whole entry, looked up: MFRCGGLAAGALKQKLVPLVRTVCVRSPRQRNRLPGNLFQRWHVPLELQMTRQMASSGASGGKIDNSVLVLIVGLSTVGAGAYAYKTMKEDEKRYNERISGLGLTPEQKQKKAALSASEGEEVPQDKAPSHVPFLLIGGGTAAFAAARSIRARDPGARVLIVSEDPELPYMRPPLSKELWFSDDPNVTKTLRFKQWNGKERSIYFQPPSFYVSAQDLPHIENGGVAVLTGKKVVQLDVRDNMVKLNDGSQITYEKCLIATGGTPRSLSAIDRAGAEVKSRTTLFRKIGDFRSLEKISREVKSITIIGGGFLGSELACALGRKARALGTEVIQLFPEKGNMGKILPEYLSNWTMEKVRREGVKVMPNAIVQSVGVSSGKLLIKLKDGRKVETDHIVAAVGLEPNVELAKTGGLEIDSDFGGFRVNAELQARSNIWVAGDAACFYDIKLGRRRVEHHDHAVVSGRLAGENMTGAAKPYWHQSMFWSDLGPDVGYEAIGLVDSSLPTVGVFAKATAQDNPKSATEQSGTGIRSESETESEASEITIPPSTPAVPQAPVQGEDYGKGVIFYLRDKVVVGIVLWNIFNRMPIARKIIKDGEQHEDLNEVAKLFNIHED
UniProt P07311: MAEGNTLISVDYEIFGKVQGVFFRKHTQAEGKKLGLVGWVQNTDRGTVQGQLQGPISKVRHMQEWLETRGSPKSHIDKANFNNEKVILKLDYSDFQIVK
UniProt Q86V24: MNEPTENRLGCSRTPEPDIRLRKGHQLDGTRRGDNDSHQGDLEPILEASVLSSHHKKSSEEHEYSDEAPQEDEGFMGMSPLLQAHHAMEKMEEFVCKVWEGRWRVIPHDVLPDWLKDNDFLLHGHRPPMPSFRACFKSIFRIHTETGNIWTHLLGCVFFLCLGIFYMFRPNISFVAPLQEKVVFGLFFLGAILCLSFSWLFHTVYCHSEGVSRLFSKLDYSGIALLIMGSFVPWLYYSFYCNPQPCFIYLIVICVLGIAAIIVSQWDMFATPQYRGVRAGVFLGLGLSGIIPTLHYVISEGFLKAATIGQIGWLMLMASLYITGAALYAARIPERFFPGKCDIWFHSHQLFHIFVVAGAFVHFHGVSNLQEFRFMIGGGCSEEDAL
UniProt O14672: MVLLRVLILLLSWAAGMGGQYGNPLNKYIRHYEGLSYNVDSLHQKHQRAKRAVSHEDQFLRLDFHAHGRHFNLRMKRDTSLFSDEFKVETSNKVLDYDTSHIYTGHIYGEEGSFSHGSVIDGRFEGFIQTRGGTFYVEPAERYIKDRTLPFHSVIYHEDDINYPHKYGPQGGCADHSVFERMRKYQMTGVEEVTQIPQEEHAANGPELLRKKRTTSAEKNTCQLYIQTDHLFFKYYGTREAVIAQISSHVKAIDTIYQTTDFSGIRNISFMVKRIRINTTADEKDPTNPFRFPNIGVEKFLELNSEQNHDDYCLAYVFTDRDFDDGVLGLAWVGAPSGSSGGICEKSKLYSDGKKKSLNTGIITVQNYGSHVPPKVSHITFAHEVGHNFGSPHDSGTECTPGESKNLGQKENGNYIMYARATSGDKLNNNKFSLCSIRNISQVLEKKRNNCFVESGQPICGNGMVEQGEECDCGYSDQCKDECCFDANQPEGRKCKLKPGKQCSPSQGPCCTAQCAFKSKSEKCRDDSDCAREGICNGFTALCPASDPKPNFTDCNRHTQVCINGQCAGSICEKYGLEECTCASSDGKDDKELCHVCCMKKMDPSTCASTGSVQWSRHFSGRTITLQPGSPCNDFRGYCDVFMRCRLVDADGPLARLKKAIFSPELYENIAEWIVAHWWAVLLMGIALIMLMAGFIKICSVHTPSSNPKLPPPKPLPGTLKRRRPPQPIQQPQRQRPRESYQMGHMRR
UniProt Q9UHB7: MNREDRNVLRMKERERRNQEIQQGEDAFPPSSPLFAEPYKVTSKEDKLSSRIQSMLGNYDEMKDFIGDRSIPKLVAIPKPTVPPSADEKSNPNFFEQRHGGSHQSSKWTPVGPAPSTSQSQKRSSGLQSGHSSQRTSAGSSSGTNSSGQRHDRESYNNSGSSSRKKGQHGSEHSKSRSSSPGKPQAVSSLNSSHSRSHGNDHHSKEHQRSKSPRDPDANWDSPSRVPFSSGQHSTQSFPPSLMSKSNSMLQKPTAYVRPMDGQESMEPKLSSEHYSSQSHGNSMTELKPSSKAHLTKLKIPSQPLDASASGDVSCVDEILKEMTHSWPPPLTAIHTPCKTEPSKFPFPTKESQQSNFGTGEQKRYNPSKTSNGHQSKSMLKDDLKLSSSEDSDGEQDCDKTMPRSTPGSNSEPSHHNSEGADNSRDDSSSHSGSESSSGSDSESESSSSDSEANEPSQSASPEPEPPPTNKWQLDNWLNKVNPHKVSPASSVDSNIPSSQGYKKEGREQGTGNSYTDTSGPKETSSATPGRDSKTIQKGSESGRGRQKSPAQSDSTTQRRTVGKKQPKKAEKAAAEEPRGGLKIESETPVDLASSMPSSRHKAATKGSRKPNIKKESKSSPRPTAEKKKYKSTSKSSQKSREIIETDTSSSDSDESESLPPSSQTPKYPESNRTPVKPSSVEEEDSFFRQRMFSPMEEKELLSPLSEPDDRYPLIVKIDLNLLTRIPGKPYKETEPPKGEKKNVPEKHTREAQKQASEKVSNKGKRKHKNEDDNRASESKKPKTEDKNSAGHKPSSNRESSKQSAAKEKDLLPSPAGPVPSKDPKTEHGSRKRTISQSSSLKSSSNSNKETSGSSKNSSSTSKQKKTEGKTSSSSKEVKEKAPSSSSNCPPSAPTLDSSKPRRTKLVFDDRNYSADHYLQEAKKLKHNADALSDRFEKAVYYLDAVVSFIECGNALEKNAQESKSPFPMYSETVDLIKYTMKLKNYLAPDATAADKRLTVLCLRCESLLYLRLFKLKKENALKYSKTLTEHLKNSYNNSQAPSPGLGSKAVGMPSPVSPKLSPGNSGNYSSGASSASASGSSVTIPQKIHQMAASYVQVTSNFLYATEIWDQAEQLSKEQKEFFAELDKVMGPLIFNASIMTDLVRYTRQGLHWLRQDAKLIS
UniProt Q7Z591: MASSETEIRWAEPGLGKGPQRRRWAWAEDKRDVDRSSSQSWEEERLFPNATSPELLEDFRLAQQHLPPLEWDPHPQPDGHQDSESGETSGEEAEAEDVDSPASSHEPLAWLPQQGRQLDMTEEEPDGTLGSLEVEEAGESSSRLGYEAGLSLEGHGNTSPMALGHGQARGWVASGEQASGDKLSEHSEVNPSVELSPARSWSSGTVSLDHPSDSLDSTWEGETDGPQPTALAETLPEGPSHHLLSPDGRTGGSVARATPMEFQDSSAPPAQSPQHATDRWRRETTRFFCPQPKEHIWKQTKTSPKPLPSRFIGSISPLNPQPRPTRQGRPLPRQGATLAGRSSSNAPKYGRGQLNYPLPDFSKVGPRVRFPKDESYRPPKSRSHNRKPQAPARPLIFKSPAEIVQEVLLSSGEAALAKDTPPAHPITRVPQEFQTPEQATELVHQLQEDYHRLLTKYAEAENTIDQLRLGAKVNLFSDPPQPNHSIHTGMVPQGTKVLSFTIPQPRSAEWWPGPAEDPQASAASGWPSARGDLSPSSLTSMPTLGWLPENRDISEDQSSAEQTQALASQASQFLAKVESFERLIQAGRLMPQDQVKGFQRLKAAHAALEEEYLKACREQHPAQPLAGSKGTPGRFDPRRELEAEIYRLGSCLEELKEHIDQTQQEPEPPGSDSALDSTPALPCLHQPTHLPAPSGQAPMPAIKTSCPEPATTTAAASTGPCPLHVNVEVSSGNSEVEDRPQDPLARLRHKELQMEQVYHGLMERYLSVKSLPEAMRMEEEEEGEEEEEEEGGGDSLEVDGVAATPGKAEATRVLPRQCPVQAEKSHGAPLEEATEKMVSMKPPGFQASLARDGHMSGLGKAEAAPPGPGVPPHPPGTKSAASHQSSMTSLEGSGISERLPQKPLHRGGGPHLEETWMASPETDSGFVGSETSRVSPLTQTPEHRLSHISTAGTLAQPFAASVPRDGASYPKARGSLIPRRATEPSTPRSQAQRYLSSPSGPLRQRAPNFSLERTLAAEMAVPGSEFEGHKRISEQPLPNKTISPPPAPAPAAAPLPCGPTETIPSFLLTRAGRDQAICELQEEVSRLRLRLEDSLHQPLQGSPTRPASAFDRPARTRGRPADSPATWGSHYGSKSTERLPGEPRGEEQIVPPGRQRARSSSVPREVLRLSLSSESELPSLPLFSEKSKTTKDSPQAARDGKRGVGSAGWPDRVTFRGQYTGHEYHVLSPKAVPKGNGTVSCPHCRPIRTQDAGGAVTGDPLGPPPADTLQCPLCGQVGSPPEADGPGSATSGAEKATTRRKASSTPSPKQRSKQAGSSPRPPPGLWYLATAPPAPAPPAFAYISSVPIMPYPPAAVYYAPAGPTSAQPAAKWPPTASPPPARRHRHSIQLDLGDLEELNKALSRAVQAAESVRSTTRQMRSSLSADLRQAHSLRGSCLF

compound: C1COCCN1CCN2C3=CC=CC=C3N=C2NC(=O)C4=CC(=CC=C4)[N+](=O)[O-] [IRAK-1-4 Inhibitor I]; assay: log2 fold change, soluble protein after heating vs DMSO (PISA); higher = thermal stabilisation; K562 lysate, 10 uM; active = over 0.2 and 3.5 SD of the protein, either way, in both replicates (recomputed)
Outline: (§1)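 To prepare the extract, K562 pellets were dounce-homogenised in PBS pH 7.4 with 1 mM MgCl2, giving crude material at 1 mg/mL protein. This was treated with 10 μM compound for 30 min, then heated in aliquots for 3 min over 48°C-58°C before pooling and addition of NP-40 to 0.5% at 4°C. Centrifugation at 21,000xg for 90 min left soluble protein in the supernatant, which TMTpro 16plex LC-MS/MS quantified with equalised channel sums. Results are log-two fold changes in thermal stability compared with solvent controls, from duplicates.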

log2 fold change, inactive:
AK4 (UniProt P27144) -0.002
AGPS (UniProt O00116) 0.023
ACTB, A0A2R8Y793 0.013
ACTR2 (UniProt P61160) 0.006
ACSF3 (UniProt Q4G176) 0.004
AGTPBP1 (UniProt Q9UPW5) 0.022
AHSA1 (UniProt O95433) 0.019
ADPRH (UniProt P54922) -0.005
AFF1 isoform 2 (UniProt P51825) 0.021
AGAP3 isoform 4 (UniProt Q96P47) 0.013
AIFM1 (UniProt O95831) 0.04

compound: C=CC(=O)N1CCC[C@@H](n2nc(-c3ccc(Oc4ccccc4)cc3)c3c(N)ncnc32)C1 [ibrutinib]; assay: as above
Outline: as §1

log2 fold change, inactive:
AIP (UniProt O00170) 0.019
ACY1 (UniProt Q03154) 0.057
ACTG1 (UniProt I3L4N8) 0.191
ACYP1 (UniProt P07311) 0.056
ADIPOR2 (UniProt Q86V24) 0.156
ACSL1 (UniProt P33121) 0.009
ACOT9 isoform 4 (UniProt Q9Y305) -0.008
AGFG1 isoform 4 (UniProt P52594) 0.018
ADA (UniProt P00813) 0.001
ADAM10 (UniProt O14672) -0.01
AFF4 (UniProt Q9UHB7) 0.172
AKNA (UniProt Q7Z591) -0.071

Retrieved one by one from above (2):
log2 fold change, inactive:
ADA (UniProt P00813) 0.001
ACYP1 (UniProt P07311) 0.056
